From article PMC10724237, “Identification of 5-HT2A receptor signaling pathways associated with psychedelic potential” (Nature Communications, 2023) come the findings set out here.

Chains of the proteins cited; added tags and fusions are not shown.
UniProt P35363: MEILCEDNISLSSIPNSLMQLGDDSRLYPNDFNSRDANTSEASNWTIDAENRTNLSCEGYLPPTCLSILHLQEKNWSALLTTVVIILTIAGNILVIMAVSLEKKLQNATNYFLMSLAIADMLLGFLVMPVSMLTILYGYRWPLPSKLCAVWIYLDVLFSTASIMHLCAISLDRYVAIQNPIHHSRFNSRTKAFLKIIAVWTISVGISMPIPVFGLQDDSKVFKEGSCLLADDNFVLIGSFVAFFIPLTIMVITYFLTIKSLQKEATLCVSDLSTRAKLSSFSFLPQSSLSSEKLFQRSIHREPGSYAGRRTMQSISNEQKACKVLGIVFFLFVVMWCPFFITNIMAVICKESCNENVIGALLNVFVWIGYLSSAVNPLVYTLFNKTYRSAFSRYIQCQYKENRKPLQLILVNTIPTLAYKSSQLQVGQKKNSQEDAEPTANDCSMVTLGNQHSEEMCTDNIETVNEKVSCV
UniProt P41595: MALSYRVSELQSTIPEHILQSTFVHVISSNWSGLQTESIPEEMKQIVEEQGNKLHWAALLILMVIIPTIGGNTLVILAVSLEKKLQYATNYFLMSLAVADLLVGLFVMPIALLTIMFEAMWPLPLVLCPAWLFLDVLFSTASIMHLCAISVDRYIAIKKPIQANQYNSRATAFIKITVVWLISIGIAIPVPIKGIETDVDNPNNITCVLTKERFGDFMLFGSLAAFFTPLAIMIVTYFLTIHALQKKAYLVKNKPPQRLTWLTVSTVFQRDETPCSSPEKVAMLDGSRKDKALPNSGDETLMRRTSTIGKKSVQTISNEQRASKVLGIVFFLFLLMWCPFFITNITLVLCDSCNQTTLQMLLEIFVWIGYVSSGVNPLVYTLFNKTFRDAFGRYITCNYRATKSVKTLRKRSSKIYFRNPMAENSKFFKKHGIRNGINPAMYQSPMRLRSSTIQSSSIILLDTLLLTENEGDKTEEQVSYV

Assay [1] has as its target mouse 5-HT2A receptor with C-terminal fused renilla luciferase (RLuc8) (mouse) (UniProt P35363). Briefly: FRET or BRET; BRET^1 in HEK293T cells co-transfected 1:15 with 5-HT receptor-RLuc8 and Venus-β-arrestin2; recruitment stimulated by agonist (5-HT, psychedelics, 25N series); 37 °C, 60-minute compound incubation (other time points in kinetic runs); coelenterazine h; HBSS, 20 mM HEPES, pH 7.4. A general note: In BRET a luciferase serves as donor, and the signal depends on an acceptor being close.

Assay [2] has as its target 5-HT2B receptor with C-terminal fused renilla luciferase (RLuc8) (not stated (human or mouse cDNA cloned)) (UniProt P41595). The description is as above.

No constants are given. Whether binding was seen depends on the method and setting. Binding seen in cells or lysates may run through a third protein. Some entries that bind do so weakly or less than the wild type.

For the substance “Venus-tagged N-terminal β-arrestin2 (from UniProt P32121 1-409)”, the figures for the binding entry in assay [1] and in assay [2] were “binds” and “binds weakly”, respectively.
